From publication PMC4497409
No constants are given. Whether binding was seen depends on the method and setting.

Key:
[1] = target: Frizzled8 cysteine-rich domain, mouse (mouse) (UniProt Q61091); test: SEC-MALS; FzCRD proteins at 50 uM on Superdex S200 10/300 GL in 10 mM HEPES, pH 7.5, 0.15 mM NaCl (so in the source); Fz4CRD glycosylated and deglycosylated, mFz5CRD and mFz8CRD glycosylated; both purified
[2] = target: Frizzled5 cysteine-rich domain, mouse (mouse) (UniProt Q9EQD0); test: as above

| Binder | binding [1] | binding [2] |
| --- | --- | --- |
| Frizzled8 cysteine-rich domain, mouse (domain or fragment, UniProt Q61091 30-170) AKELACQEITVPLCKGIGYNYTYMPNQFNHDTQDEAGLEVHQFWPLVEIQCSPDLKFFLCSMYTPICLEDYKKPLPPCRSVCERAKAGCAPLMRQYGFAWPDRMRCDRLPEQGNPDTLCMDYNRTDLTTAAPSPPRRLPPP | no binding (tested: 50 μM) | – |
| Frizzled5 cysteine-rich domain, mouse (domain or fragment, UniProt Q9EQD0 31-176) PVCQEITVPMCRGIGYNLTHMPNQFNHDTQDEAGLEVHQFWPLVEIHCSPDLRFFLCSMYTPICLPDYHKPLPPCRSVCERAKAGCSPLMRQYGFAWPERMSCDRLPVLGGDAEVLCMDYNRSEATTASPKSFPAKPTLPGPPGAP | – | no binding (tested: 50 μM) |
